# Reference: the supplement of paper PMC10849652
# Sequences of proteins named here, by UniProt entry; tags and fusion partners are left off. A change or cut given only in a name is not applied to a line headed by its entry.
# UniProt O75152: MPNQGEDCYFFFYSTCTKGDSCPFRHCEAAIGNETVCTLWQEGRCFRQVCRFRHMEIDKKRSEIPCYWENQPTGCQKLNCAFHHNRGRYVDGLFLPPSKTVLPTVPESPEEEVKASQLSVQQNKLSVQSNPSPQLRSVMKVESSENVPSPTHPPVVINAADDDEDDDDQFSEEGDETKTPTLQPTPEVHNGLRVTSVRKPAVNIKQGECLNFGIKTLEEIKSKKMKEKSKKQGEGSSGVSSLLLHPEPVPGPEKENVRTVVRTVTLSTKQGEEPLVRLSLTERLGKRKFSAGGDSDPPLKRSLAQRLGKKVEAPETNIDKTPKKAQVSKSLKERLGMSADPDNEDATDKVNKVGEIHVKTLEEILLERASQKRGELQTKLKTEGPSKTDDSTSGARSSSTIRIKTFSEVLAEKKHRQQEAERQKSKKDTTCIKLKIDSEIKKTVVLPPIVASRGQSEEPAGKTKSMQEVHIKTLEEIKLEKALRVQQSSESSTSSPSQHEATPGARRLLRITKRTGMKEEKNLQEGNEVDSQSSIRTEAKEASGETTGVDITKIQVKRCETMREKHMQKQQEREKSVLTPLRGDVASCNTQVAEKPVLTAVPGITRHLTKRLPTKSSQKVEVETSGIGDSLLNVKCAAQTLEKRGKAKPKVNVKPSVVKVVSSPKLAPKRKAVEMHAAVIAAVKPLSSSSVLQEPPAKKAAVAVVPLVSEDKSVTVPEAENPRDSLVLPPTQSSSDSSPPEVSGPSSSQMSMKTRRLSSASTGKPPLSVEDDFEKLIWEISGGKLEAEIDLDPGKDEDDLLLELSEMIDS
# UniProt Q9UBW7: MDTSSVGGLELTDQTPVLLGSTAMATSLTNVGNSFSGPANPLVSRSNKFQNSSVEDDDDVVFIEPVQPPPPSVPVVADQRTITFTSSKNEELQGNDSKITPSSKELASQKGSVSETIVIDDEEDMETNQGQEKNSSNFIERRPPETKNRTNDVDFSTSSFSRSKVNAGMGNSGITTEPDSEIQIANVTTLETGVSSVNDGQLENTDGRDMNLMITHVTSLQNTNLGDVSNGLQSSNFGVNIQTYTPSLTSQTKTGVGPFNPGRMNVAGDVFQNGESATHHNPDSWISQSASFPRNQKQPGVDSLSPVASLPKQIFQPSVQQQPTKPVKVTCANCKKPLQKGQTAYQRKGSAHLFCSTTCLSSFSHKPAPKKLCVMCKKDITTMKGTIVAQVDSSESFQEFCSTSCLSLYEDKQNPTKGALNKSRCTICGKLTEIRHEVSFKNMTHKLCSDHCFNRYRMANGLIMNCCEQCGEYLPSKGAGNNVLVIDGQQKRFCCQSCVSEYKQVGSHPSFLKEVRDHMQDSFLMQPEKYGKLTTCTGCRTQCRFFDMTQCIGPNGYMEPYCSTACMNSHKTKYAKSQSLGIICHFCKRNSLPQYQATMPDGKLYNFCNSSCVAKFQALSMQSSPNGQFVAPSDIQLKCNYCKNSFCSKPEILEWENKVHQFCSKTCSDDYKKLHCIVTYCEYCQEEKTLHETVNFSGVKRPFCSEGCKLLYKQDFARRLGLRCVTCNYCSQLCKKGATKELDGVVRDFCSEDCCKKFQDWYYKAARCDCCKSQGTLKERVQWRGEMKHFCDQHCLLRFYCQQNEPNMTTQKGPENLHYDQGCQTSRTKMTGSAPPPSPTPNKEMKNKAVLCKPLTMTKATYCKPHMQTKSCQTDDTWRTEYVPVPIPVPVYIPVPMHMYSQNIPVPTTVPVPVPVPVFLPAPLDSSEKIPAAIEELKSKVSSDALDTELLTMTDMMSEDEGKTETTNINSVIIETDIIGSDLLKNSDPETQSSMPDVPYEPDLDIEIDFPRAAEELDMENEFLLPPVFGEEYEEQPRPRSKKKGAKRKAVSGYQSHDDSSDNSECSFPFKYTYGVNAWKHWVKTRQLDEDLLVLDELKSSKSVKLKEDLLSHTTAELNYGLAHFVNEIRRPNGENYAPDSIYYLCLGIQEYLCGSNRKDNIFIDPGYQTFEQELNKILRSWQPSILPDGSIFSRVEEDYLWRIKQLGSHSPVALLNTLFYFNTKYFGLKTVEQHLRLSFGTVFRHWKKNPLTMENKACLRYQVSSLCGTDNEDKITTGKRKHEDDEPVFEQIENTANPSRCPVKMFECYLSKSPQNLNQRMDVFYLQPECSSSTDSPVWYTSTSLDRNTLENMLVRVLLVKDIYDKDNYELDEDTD
# UniProt Q9ULC8: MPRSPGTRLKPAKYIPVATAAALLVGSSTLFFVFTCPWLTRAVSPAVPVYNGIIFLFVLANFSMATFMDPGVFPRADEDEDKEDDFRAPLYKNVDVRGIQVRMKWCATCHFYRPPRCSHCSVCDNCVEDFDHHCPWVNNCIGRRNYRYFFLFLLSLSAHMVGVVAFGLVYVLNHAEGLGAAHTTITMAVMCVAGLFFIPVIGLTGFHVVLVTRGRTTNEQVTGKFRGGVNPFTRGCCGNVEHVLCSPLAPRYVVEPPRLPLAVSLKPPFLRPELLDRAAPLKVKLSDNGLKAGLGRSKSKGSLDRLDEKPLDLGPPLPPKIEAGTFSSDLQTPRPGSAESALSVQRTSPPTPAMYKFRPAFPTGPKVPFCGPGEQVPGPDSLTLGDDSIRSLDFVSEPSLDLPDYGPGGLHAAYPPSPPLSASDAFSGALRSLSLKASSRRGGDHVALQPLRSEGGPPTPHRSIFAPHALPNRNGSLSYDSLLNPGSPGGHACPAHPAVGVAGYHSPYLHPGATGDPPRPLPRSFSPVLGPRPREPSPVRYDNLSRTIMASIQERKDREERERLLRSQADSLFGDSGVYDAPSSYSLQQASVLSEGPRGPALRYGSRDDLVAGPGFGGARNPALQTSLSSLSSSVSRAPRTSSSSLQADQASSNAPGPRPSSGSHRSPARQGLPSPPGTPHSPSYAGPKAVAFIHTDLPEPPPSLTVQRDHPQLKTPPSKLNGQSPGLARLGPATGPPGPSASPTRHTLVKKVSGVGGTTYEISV
# UniProt Q9UK10: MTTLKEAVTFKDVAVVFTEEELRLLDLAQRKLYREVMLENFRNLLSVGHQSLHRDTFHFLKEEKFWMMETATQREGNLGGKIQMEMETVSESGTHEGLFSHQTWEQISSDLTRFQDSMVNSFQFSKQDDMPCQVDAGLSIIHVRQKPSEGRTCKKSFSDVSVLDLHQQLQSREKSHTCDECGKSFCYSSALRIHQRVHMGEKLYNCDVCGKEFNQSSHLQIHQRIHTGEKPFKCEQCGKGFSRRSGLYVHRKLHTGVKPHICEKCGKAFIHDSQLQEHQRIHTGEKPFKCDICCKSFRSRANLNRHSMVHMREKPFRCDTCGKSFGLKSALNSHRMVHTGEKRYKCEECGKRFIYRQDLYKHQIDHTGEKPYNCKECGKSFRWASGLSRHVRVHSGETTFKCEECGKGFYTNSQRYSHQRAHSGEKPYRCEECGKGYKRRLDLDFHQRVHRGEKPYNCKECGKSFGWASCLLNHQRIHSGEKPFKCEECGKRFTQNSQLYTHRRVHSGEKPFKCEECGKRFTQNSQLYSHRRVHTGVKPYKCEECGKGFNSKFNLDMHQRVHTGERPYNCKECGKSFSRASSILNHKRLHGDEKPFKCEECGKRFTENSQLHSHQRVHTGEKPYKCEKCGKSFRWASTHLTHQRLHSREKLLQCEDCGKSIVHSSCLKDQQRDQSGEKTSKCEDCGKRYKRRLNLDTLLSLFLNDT
# UniProt P17026: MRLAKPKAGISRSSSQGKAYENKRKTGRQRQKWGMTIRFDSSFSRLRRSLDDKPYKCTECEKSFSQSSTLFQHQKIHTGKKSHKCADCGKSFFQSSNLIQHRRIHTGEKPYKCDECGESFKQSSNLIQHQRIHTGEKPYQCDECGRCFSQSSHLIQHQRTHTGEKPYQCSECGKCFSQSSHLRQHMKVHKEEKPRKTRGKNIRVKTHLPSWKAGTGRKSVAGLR
# UniProt O95070: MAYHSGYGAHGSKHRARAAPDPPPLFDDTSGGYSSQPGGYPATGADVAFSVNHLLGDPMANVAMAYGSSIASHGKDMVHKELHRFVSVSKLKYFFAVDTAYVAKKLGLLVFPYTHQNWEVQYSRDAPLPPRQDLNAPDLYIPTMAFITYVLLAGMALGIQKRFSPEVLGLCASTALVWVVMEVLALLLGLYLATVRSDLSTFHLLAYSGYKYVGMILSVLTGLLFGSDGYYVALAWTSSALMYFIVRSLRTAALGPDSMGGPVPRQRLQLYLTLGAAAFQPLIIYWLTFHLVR
# UniProt Q969J2: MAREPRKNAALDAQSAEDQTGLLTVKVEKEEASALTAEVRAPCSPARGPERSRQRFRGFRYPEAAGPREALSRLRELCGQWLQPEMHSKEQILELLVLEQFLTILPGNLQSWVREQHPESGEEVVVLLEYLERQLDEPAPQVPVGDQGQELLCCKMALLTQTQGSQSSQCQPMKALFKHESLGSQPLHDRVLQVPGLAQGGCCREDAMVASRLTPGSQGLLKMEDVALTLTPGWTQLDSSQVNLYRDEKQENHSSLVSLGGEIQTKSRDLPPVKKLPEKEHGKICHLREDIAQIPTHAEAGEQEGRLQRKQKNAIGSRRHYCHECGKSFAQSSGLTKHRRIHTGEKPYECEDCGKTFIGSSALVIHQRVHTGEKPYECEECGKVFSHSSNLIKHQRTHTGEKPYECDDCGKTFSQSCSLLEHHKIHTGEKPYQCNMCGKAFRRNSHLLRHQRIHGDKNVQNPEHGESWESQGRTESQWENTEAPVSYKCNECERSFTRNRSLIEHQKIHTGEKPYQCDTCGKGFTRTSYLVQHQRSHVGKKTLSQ
# UniProt Q9BYJ9: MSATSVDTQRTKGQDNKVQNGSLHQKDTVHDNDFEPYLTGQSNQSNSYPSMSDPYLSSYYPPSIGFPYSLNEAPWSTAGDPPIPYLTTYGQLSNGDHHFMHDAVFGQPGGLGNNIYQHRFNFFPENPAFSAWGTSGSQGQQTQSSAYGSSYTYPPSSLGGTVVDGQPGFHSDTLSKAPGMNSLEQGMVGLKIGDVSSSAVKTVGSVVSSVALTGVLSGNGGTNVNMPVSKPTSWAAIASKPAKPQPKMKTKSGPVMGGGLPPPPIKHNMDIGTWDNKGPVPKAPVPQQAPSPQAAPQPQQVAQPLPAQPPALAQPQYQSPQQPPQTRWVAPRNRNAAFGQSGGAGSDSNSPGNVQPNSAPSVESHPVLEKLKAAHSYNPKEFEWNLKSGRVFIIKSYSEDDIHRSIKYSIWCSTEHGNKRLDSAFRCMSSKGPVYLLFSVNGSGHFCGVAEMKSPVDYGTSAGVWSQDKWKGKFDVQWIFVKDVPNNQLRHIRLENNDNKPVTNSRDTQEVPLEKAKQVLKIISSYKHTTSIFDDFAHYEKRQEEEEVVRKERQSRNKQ
# UniProt Q8WW38: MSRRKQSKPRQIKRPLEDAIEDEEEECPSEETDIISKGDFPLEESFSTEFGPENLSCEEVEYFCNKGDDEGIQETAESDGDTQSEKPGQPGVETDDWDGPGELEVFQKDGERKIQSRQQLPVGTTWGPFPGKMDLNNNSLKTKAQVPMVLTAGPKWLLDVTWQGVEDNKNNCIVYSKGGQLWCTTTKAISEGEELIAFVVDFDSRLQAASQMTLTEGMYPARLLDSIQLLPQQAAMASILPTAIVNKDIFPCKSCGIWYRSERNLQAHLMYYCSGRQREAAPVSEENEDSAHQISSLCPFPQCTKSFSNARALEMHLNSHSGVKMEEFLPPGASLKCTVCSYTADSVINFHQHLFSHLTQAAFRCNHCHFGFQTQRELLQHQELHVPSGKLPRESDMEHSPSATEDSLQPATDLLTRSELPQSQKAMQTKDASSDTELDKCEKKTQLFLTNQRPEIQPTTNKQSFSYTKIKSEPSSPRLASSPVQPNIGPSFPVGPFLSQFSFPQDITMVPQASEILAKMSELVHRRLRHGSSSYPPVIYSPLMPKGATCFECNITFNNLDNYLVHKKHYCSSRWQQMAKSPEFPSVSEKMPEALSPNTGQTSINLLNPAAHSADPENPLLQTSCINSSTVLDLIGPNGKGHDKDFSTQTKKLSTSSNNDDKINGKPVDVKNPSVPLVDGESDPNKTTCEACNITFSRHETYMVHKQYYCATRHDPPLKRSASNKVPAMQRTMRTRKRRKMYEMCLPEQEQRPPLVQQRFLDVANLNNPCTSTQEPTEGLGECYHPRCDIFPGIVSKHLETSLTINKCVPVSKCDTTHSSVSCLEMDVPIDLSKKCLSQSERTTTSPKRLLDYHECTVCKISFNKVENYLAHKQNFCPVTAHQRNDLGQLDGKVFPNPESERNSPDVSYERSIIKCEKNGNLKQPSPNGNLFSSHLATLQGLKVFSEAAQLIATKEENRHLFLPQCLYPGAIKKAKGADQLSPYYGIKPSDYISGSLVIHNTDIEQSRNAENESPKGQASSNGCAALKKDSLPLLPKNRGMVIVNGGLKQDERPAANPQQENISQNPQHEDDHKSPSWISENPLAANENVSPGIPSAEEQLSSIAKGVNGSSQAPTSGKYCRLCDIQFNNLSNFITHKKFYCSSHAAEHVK
# This is one part of the list.
# Tests used:
# Experiment in all cases: log2 fold change, soluble protein after heating vs DMSO (PISA); higher = thermal stabilisation; K562 cells, 10 uM, 30 min; active = over 0.2 and 3.5 SD of the protein, either way, in both replicates (recomputed)
# [1] = compound: CC1=NC(=CC=C1)C2=C(N=C(N2)C(C)(C)C)C3=CC4=NC=CN=C4C=C3
# Procedure, shortened: (§1)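 K562 cells at 2×10^6 cells/mL were given 10 μM compound for 30 min. Aliquots then went through 3 min of heating across 48°C-58°C, were pooled, and were extracted in PBS with 0.5% NP-40 at 4°C, and the supernatant after 21,000xg for 90 min was quantified by TMTpro 16plex LC-MS/MS with channel sums equalised. Thermal stability relative to control samples, from duplicates, is given as log2 fold change.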
# Nexturastat A = compound: CCCCN(Cc1ccc(C(=O)NO)cc1)C(=O)Nc1ccccc1 [Nexturastat A]
# Procedure, shortened: as §1
# [2] = compound: CCCc1cc(C)[nH]c(=O)c1CNC(=O)c1cc(-c2ccnc(N3CCN(C)CC3)c2)cc2c1cnn2C(C)C
# Procedure, shortened: as §1
# [3] = compound: CC[C@@H]1C(=O)N(C)c2cnc(Nc3ccc(C(=O)NC4CCN(C)CC4)cc3OC)nc2N1C1CCCC1
# Procedure, shortened: as §1
# epoxomicin = compound: CC[C@H](C)[C@@H](C(=O)N[C@@H]([C@@H](C)O)C(=O)N[C@@H](CC(C)C)C(=O)[C@]1(CO1)C)NC(=O)[C@H]([C@@H](C)CC)N(C)C(=O)C [epoxomicin]
# Procedure, shortened: as §1
# [4] = compound: CCn1cc(-c2ccnc3[nH]c(-c4cccc(CN(C)C)c4)cc23)c(-c2ccc(NC(=O)N(C)C)cc2)n1
# Procedure, shortened: as §1
# [5] = compound: CN1CCC(CNc2ccc3ncc(-c4cccc(OC(F)(F)F)c4)n3n2)CC1
# Procedure, shortened: as §1
# [6] = compound: CC1=CC=C(C=C1)SC2=C3C=C(SC3=CN=C2)C(=O)N
# Procedure, shortened: as §1
# vemurafenib = compound: CCCS(=O)(=O)Nc1ccc(F)c(C(=O)c2c[nH]c3ncc(-c4ccc(Cl)cc4)cc23)c1F [vemurafenib]
# Procedure, shortened: as §1
# [7] = compound: CCCS(=O)(=O)Nc1ccc(F)c(C(=O)c2c[nH]c3ncc(Cl)cc23)c1F
# Procedure, shortened: as §1
# barasertib = compound: CCN(CCCOc1ccc2c(Nc3cc(CC(=O)Nc4cccc(F)c4)[nH]n3)ncnc2c1)CCOP(=O)(O)O [barasertib]
# Procedure, shortened: as §1
# volasertib = compound: CC[C@@H]1C(=O)N(C)c2cnc(Nc3ccc(C(=O)N[C@H]4CC[C@H](N5CCN(CC6CC6)CC5)CC4)cc3OC)nc2N1C(C)C [volasertib]
# Procedure, shortened: as §1
# [8] = compound: CC[C@H](C)N1C=C(C2=C(C=C(C=C21)C3=CN=C(C=C3)N4CCNCC4)C(=O)NCC5=C(C=C(NC5=O)C)C)C
# Procedure, shortened: as §1
# [9] = compound: CN(C)CC(=O)Nc1ccc2[nH]c(=O)c3ccccc3c2c1
# Procedure, shortened: as §1
# rosiglitazone = compound: CN(CCOC1=CC=C(C=C1)C[C@H]2C(=O)NC(=O)S2)C3=CC=CC=N3 (racemic) [rosiglitazone]
# Procedure, shortened: as §1
# [10] = compound: CN1C2=C(C3=C1C(=O)N(N=C3)CC4=CC(=CC=C4)N)SC(=C2)S(=O)C
# Procedure, shortened: as §1
# givinostat = compound: CCN(CC)Cc1ccc2cc(COC(=O)Nc3ccc(C(=O)NO)cc3)ccc2c1 [givinostat]
# Procedure, shortened: as §1
# [11] = compound: CCn1c(C(=O)N(C2CC2)C2CC2)cc2c3c(ncn3C)c(Nc3cc(C)n(C)n3)nc21
# Procedure, shortened: as §1
# [12] = compound: CC1=C(C=C(C=C1)NC(=O)C2=CC(=CC=C2)N(C)C)NC(=O)C3=CC=C(C=C3)O
# Procedure, shortened: as §1
# [13] = compound: CC1=C(C=C(C=C1)NC(=O)C2=CC(=CC=C2)C(C)(C)C#N)NC3=CC4=C(C=C3)N=CN(C4=O)C
# Procedure, shortened: as §1
target,measurement,setting,value
YTHDC2 (UniProt Q9H6S0),log2 fold change,[1],inactive: -0.119
same,log2 fold change,Nexturastat A,inactive: 0.209
same,log2 fold change,[2],inactive: 0.008
same,log2 fold change,[3],inactive: 0.289
same,log2 fold change,epoxomicin,inactive: -0.106
same,log2 fold change,[4],inactive: 0.175
same,log2 fold change,[5],inactive: -0.082
ZC3H11A (UniProt O75152),log2 fold change,[6],inactive: -0.03
same,log2 fold change,vemurafenib,inactive: 0.057
same,log2 fold change,[7],inactive: 0.065
same,log2 fold change,[2],inactive: 0.163
same,log2 fold change,barasertib,inactive: 0.071
same,log2 fold change,[3],inactive: -0.297
same,log2 fold change,volasertib,inactive: -0.369
same,log2 fold change,[8],inactive: 0.002
same,log2 fold change,[4],inactive: 0.049
same,log2 fold change,[9],inactive: 0.11
same,log2 fold change,rosiglitazone,inactive: -0.045
same,log2 fold change,[10],inactive: -0.127
same,log2 fold change,[5],inactive: -0.039
XYLB (UniProt O75191),log2 fold change,Nexturastat A,inactive: 0.19
same,log2 fold change,givinostat,inactive: 0.19
same,log2 fold change,epoxomicin,inactive: -0.075
same,log2 fold change,[11],inactive: 0.026
ZFYVE21 isoform 2 (UniProt Q9BQ24),log2 fold change,[12],inactive: 0.088
same,log2 fold change,vemurafenib,inactive: -0.105
same,log2 fold change,givinostat,inactive: 0.093
same,log2 fold change,[3],inactive: -0.097
same,log2 fold change,[11],inactive: -0.179
same,log2 fold change,[4],inactive: 0.123
same,log2 fold change,[9],inactive: 0.256
same,log2 fold change,[10],inactive: -0.018
same,log2 fold change,[5],inactive: -0.562
ZBTB7B isoform 2 (UniProt O15156),log2 fold change,[13],inactive: -0.046
same,log2 fold change,vemurafenib,inactive: -0.082
same,log2 fold change,[3],inactive: 0.142
same,log2 fold change,[9],inactive: 0.067
YWHAZ (UniProt E7ESK7),log2 fold change,[12],inactive: 0.082
same,log2 fold change,[6],inactive: -0.019
same,log2 fold change,[1],inactive: -0.064
same,log2 fold change,Nexturastat A,inactive: 0.34
same,log2 fold change,[7],inactive: -0.05
same,log2 fold change,[2],inactive: -0.393
same,log2 fold change,barasertib,inactive: 0.114
same,log2 fold change,[3],inactive: 0.1
same,log2 fold change,volasertib,inactive: -0.173
same,log2 fold change,epoxomicin,inactive: -0.075
same,log2 fold change,[10],inactive: 0.101
XPA (UniProt P23025),log2 fold change,[12],inactive: 0.01
same,log2 fold change,[6],inactive: 0.086
same,log2 fold change,Nexturastat A,inactive: 0.181
same,log2 fold change,vemurafenib,inactive: 0.308
same,log2 fold change,[7],inactive: 0.134
same,log2 fold change,volasertib,inactive: -0.558
same,log2 fold change,[8],inactive: 0.006
same,log2 fold change,epoxomicin,inactive: -0.003
same,log2 fold change,[4],inactive: 0.087
same,log2 fold change,[9],inactive: 0.07
same,log2 fold change,[5],inactive: -0.175
ZDHHC7 isoform 2 (UniProt Q9NXF8),log2 fold change,[12],inactive: 0.014
same,log2 fold change,[6],inactive: -0.138
same,log2 fold change,[1],inactive: 0.335
same,log2 fold change,Nexturastat A,inactive: 0.052
same,log2 fold change,vemurafenib,inactive: -0.016
same,log2 fold change,[7],inactive: 0.014
same,log2 fold change,givinostat,inactive: 0.011
same,log2 fold change,[3],inactive: 0.083
same,log2 fold change,volasertib,inactive: -0.059
same,log2 fold change,[8],inactive: -0.099
same,log2 fold change,epoxomicin,inactive: 0.124
same,log2 fold change,[4],inactive: -0.363
same,log2 fold change,[9],inactive: 0.057
same,log2 fold change,[10],inactive: 0.02
same,log2 fold change,[5],active: -0.415
ZBTB14 (UniProt O43829),log2 fold change,[12],inactive: -0.054
same,log2 fold change,[2],inactive: -0.034
same,log2 fold change,givinostat,inactive: -0.02
same,log2 fold change,barasertib,inactive: 0.258
same,log2 fold change,[11],inactive: -0.014
same,log2 fold change,rosiglitazone,inactive: -0.06
ZDHHC9 (UniProt Q9Y397),log2 fold change,[12],inactive: -0.07
same,log2 fold change,[4],inactive: -0.157
same,log2 fold change,[5],inactive: -0.047
XP32 (UniProt Q5T750),log2 fold change,[12],inactive: 0.01
same,log2 fold change,[2],inactive: 0.218
same,log2 fold change,barasertib,inactive: 0.256
same,log2 fold change,[3],inactive: 0.208
same,log2 fold change,[8],inactive: 0.123
same,log2 fold change,[4],inactive: -0.532
same,log2 fold change,rosiglitazone,inactive: -0.078
same,log2 fold change,[10],inactive: 0.57
same,log2 fold change,[5],inactive: -0.632
ZBTB3 (UniProt Q9H5J0),log2 fold change,[12],inactive: 0
same,log2 fold change,[6],inactive: -0.046
same,log2 fold change,[1],inactive: 0.08
same,log2 fold change,vemurafenib,inactive: 0.197
same,log2 fold change,[7],inactive: 0.197
same,log2 fold change,[2],inactive: -0.034
same,log2 fold change,givinostat,inactive: -0.097
same,log2 fold change,barasertib,inactive: -0.041
same,log2 fold change,[3],inactive: 0.112
same,log2 fold change,volasertib,inactive: -0.119
same,log2 fold change,[8],inactive: -0.041
same,log2 fold change,[11],inactive: -0.069
same,log2 fold change,[4],inactive: 0.038
same,log2 fold change,[9],inactive: -0.021
same,log2 fold change,rosiglitazone,inactive: 0.01
same,log2 fold change,[5],inactive: 0.001
ZMYM2 (UniProt Q9UBW7),log2 fold change,[6],inactive: -0.019
same,log2 fold change,[1],inactive: -0.025
same,log2 fold change,[7],inactive: 0.057
same,log2 fold change,barasertib,inactive: 0.076
same,log2 fold change,volasertib,inactive: -0.798
same,log2 fold change,rosiglitazone,inactive: 0.242
same,log2 fold change,[10],inactive: -0.005
XPC (UniProt Q01831),log2 fold change,[12],inactive: 0.148
same,log2 fold change,[6],inactive: 0.037
same,log2 fold change,[1],inactive: -0.036
same,log2 fold change,Nexturastat A,inactive: 0.269
same,log2 fold change,vemurafenib,inactive: 0.264
same,log2 fold change,[7],inactive: 0.06
same,log2 fold change,givinostat,inactive: 0.068
same,log2 fold change,[3],inactive: -0.013
same,log2 fold change,volasertib,inactive: -0.154
same,log2 fold change,epoxomicin,inactive: 0.052
same,log2 fold change,[11],inactive: -0.024
same,log2 fold change,[9],inactive: -0.074
ZDHHC8 isoform 3 (UniProt Q9ULC8),log2 fold change,[1],inactive: -0.03
same,log2 fold change,Nexturastat A,inactive: -0.151
same,log2 fold change,barasertib,inactive: 0.028
same,log2 fold change,[8],inactive: -0.064
same,log2 fold change,epoxomicin,inactive: -0.037
same,log2 fold change,[10],inactive: 0.121
ZMYND8 isoform 19 (UniProt Q9ULU4),log2 fold change,[6],inactive: 0.022
same,log2 fold change,[1],inactive: -0.093
same,log2 fold change,Nexturastat A,inactive: 0.011
same,log2 fold change,[7],inactive: 0.067
same,log2 fold change,givinostat,inactive: 0.126
same,log2 fold change,barasertib,inactive: -0.009
same,log2 fold change,[3],inactive: -0.069
same,log2 fold change,volasertib,inactive: -0.181
same,log2 fold change,epoxomicin,inactive: 0.247
same,log2 fold change,[11],inactive: -0.096
same,log2 fold change,rosiglitazone,inactive: 0.032
same,log2 fold change,[10],inactive: 0.051
ZNF225 (UniProt Q9UK10),log2 fold change,barasertib,inactive: -0.066
same,log2 fold change,rosiglitazone,inactive: 0.047
ZNF22 (UniProt P17026),log2 fold change,[12],inactive: -0.076
same,log2 fold change,[1],inactive: -0.274
same,log2 fold change,givinostat,inactive: 0.175
same,log2 fold change,[11],inactive: -0.216
same,log2 fold change,[10],inactive: -0.072
YIF1A (UniProt O95070),log2 fold change,[12],inactive: -0.079
same,log2 fold change,[6],inactive: -0.162
same,log2 fold change,[1],inactive: -0.061
same,log2 fold change,vemurafenib,inactive: 0.217
same,log2 fold change,[7],inactive: -0.116
same,log2 fold change,[2],inactive: -0.017
same,log2 fold change,givinostat,inactive: 0.054
same,log2 fold change,barasertib,inactive: 0.05
same,log2 fold change,volasertib,inactive: -0.021
same,log2 fold change,[8],inactive: 0.024
same,log2 fold change,[11],inactive: 0.134
same,log2 fold change,[4],inactive: -0.041
same,log2 fold change,[9],inactive: 0.1
same,log2 fold change,rosiglitazone,inactive: -0.007
same,log2 fold change,[10],inactive: 0.071
same,log2 fold change,[5],inactive: -0.047
XYLT2 (UniProt Q9H1B5),log2 fold change,[1],inactive: 0.017
same,log2 fold change,Nexturastat A,inactive: -0.023
same,log2 fold change,epoxomicin,inactive: -0.079
ZKSCAN4 (UniProt Q969J2),log2 fold change,[12],inactive: -0.123
same,log2 fold change,vemurafenib,inactive: 0.028
same,log2 fold change,[9],inactive: -0.187
YTHDF1 (UniProt Q9BYJ9),log2 fold change,[1],inactive: 0.107
same,log2 fold change,Nexturastat A,inactive: 0.341
same,log2 fold change,givinostat,inactive: 0.137
same,log2 fold change,barasertib,inactive: 0.335
same,log2 fold change,epoxomicin,inactive: -0.235
same,log2 fold change,[11],inactive: -0.009
same,log2 fold change,rosiglitazone,inactive: -0.185
ZC3H13 (UniProt Q5T200),log2 fold change,[12],inactive: 0.428
same,log2 fold change,[6],inactive: 0.17
same,log2 fold change,[1],inactive: -0.039
same,log2 fold change,Nexturastat A,inactive: 0.247
same,log2 fold change,vemurafenib,inactive: -0.236
same,log2 fold change,[7],inactive: -0.432
same,log2 fold change,[2],inactive: -0.262
same,log2 fold change,givinostat,inactive: -0.039
same,log2 fold change,barasertib,inactive: 0.072
same,log2 fold change,[3],inactive: 0.057
same,log2 fold change,volasertib,inactive: 0.048
same,log2 fold change,[8],inactive: -0.136
same,log2 fold change,epoxomicin,inactive: -0.299
same,log2 fold change,[11],inactive: -0.064
same,log2 fold change,[4],inactive: 0.142
same,log2 fold change,[9],inactive: -0.181
same,log2 fold change,rosiglitazone,inactive: -0.082
same,log2 fold change,[10],inactive: 0.036
same,log2 fold change,[5],inactive: -0.311
ZFPM2 (UniProt Q8WW38),log2 fold change,[2],inactive: 0.045
ZBTB33 (UniProt Q86T24),log2 fold change,[3],inactive: 0.108
same,log2 fold change,[10],inactive: -0.02

# Some of the entries above in another layout:
target	measurement	setting	value
ZC3H13 (UniProt Q5T200)	log2 fold change	[11]	inactive: -0.064
same	log2 fold change	[4]	inactive: 0.142
same	log2 fold change	[9]	inactive: -0.181
same	log2 fold change	rosiglitazone	inactive: -0.082
same	log2 fold change	[10]	inactive: 0.036
same	log2 fold change	[5]	inactive: -0.311
ZFPM2 (UniProt Q8WW38)	log2 fold change	[2]	inactive: 0.045

# An excerpt of these results, with bars between the fields.
target | measurement | setting | value
XYLB (UniProt O75191) | log2 fold change | epoxomicin | inactive: -0.075
same | log2 fold change | [11] | inactive: 0.026
ZFYVE21 isoform 2 (UniProt Q9BQ24) | log2 fold change | [12] | inactive: 0.088
same | log2 fold change | vemurafenib | inactive: -0.105
same | log2 fold change | givinostat | inactive: 0.093
same | log2 fold change | [3] | inactive: -0.097
same | log2 fold change | [11] | inactive: -0.179
